Assay results: PubChem BioAssay AID1794845 (National Center for Advancing Translational Sciences (NCATS), 2023)
Screen size: about 6,900 compounds; fewer than 10 were called active. The call rests on the fitted dose curve; in most records, active means well fitted curve in the direction sought with a large enough effect; inconclusive means small, poorly fitted or top-dose-only effect, or another doubt; inactive means no such curve, though single readings can be large or run the other way. The list shows a part of the results.

Protein sequences, listed by entry. Tags and fused reporters are not part of them. Lines headed by an entry give the natural chain unless they say otherwise; changes in a name come on top.
UniProt C7C422: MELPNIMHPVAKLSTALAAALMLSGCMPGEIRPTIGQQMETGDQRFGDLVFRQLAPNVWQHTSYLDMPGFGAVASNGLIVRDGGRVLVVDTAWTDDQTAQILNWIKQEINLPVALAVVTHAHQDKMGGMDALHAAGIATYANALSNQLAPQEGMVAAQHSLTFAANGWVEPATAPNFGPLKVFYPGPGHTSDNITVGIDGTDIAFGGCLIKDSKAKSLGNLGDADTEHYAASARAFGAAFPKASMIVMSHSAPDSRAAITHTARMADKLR

Each compound was assayed against Metallo-beta-lactamase type 2 (Klebsiella pneumoniae) (UniProt C7C422) (assay: qHTS to identify inhibitors of the New Delhi Metallo-beta-lactamase (NDM): primary screen against the NCATS Gemini Collection). Conditions: NDM-1 enzyme, meropenem hydrolysis, absorbance 300 nm; at 38.4 µM (top of the series) unless noted.
Procedure, shortened: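 Meropenem hydrolysis (50 uM final) by 2 nM NDM-1 read as 300 nm absorbance after 30 min, following >30 min compound–enzyme preincubation in HEPES pH 7.0 with 1 uM ZnSO4 and 0.01% Tween20.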
Further: % of control where 0% means no effect.

Activity % (negative = inhibition), inactive:
CC1(C)[C@H](Cc2cc(-c3ccccc3)on2)C[C@@H]1NCC1CC1 8.09% [at 57.5 µM]
Cc1noc(C)c1C(=O)N[C@@H]1CN(c2ncccn2)C[C@H]1CN(C)C 0.997%
Cc1ccc([S+](=O)([O-])NC2CCN(CCn3nc4n(c3=O)CCCC4)C2)cc1 (stereo not drawn) 1.86%
O=C(CCc1nnn2c1CN(C(=O)COc1ccc(F)cc1)CC2)NCc1ccccc1 -4.92%
CC(=O)N1CCC(OCCOc2ccccc2)CC1 -7.31%
COCCc1noc(-c2ccccc2OC2CN(C(=O)Cc3c[nH]c4ccccc34)C2)n1 -0.0178%
Nc1ncccc1CNC(=O)[C@H]1CCC[C@H](O)C1 16.9%
Cc1cc(C(=O)N2CCC(N3CCCC(C(=O)NCCc4ccccc4)C3)CC2)n[nH]1 (stereo not drawn) 5.67%
C[S+](=O)([O-])N1CCC(Cn2ccc3c(N4CCOCC4)nc(-c4cccc5[nH]ncc45)cc32)CC1 33.7%
CC(C)c1noc(-c2cn(C3CCN(C(=O)COc4ccccc4)CC3)nn2)n1 0.677%
O=C1c2cncnc2OCC(CNC(=O)C2(c3ccccc3)CC2)N1Cc1ccccc1 (stereo not drawn) 0.897% [at 57.5 µM]
O=c1c2c(CO)c(-c3ccccc3)nn2ccn1CCOc1ccccc1 -3.4%
O=C(N[C@H]1CCN2C(=O)c3cc(/C=C/c4ccccc4)ccc3NC(=O)[C@H]12)C1CCCC1 35.6% [at 57.5 µM]
CC(C)(O)CCc1cccc(C(=O)NCCCc2ccccn2)c1 -14.2%
CN(CC1CCOCC1)S(=O)(=O)c1ccc(Cl)cc1 -2.55%
CN1CCC(N2CC[C@H](c3nc4ccc(C(F)(F)F)cc4[nH]3)C2)CC1 0.273% [at 57.5 µM]
O=C1NCCCCCCN(S(=O)(=O)Cc2ccccc2F)[C@H]2CCC[C@@H]12 2.23%
CCCN1CC2(CCN(C)CC2)CC1C(=O)N(C)Cc1ccn[nH]1 (stereo not drawn) -4.1%
COc1ccc(CCCN2C(=O)O[C@@H]3CN(S(=O)(=O)N(C)C)C[C@@H]32)cc1 8.51%
COc1ccc(-c2onc(C)c2C(=O)NCCCCc2ccccc2)cc1 2.23%
CCOc1cccc(-c2nc(C(=O)Nc3ccc(F)cc3)cs2)c1 19%
CSCC[C@H](N)C(=O)N1CCC2(CCC(=O)N(Cc3ccccc3)C2)CC1 -0.669%
C=CCN1CC2(CCC1=O)CCN(C(=O)CC(C)n1ccnc1C)CC2 (stereo not drawn) 37.7%

Retrieved one by one from the list above:
Activity % (negative = inhibition), inactive:
O=C(CCc1nnn2c1CN(C(=O)COc1ccc(F)cc1)CC2)NCc1ccccc1 -4.92%
Cc1noc(C)c1C(=O)N[C@@H]1CN(c2ncccn2)C[C@H]1CN(C)C 0.997%
